This is an account of results in patent US20200246488A1.

Protein sequences, listed by entry. Tags and fused reporters are not part of them.
UniProt Q9Y297: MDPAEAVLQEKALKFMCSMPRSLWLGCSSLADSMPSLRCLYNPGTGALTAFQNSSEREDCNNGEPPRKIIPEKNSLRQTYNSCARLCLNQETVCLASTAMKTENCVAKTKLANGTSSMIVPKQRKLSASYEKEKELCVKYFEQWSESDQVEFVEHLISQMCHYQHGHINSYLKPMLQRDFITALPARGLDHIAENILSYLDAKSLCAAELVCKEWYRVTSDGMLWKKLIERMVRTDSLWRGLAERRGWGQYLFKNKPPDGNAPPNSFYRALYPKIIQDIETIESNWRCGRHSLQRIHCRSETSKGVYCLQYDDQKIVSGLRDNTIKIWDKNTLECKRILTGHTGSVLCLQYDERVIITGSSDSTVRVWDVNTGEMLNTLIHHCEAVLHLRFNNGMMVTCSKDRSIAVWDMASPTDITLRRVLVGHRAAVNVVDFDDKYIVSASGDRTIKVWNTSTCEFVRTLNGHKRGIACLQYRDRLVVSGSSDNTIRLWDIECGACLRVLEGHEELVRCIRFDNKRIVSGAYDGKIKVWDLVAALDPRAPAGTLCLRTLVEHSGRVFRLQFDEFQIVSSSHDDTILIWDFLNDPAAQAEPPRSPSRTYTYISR
UniProt Q9UKB1: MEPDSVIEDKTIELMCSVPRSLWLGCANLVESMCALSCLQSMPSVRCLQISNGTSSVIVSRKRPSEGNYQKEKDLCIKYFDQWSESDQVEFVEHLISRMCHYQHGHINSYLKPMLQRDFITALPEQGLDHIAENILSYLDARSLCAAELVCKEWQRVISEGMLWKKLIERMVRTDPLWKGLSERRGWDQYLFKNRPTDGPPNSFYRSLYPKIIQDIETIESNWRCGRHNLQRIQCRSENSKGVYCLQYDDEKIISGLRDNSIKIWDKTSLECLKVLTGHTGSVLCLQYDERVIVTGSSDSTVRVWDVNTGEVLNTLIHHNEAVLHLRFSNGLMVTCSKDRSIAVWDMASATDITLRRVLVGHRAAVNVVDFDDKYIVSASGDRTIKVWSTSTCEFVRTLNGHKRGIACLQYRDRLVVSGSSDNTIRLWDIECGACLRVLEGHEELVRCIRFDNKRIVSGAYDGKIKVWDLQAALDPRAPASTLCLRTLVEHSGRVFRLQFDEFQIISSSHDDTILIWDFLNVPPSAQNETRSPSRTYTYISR

Experiment [1] concerns the target BTRC1, endogenous (human) (UniProt Q9Y297). Description: tandem mass spectrometry-based affinity proteomics, FLAG immunoprecipitation from HEK293T cells.
In experiment [2] the target is FBXW11, endogenous (human) (UniProt Q9UKB1). Described as above.

No constants are given. Whether binding was seen depends on the method and setting. In cells and extracts the contact can be indirect. A yes stands for co-enrichment or nearness to the bait. Other partners may have been found. Tags and fused reporters may be left off the sequences shown.

B1: FLAG-tagged C1orf106 (WT) (protein, UniProt Q3KP66-3 1-578, looked up, not shown: small tags and cut ends)
chain: MESKDEVSDTDSGIILQSGPDSPVSPMKELTHAVHKQQRALEARLEACLEELRRLCLREAELTGTLPAEYPLKPGEKAPKVRRRIGAAYKLDDWALHREDPLSSLERQLALQLQITEAARRLCLEENLSRQARRQRKHSMLQEEKKLQELQRCLVERRRNSEPPPAAALPLGRELSASDDSSLSDGLLLEEEESQVPKPPPESPAPPSRPLPPQTLEGLQPTGPEAGSPERAPVQNSPWKETSLDHPYEKPRKSSEPWSESSSPATTPQDGPSASSLWLLEPASYHVVPIRGVPGQWQGRTSAPATPEIQGRRGQSQSLRVDSFRAGPEGRGRSAFPRRRPTHYTVTVPDSCFPATKPPLPHAACHSCSEDSGSDVSSISHPTSPGSSSPDISFLQPLSPPKTHRHRGAWVPAGSRELVAHHPKLLLPPGYFPAGRYVVVAESPLPPGEWELRRAAPGPAYEEEGTPLRYQRLVPSRSRIVRTPSLKDSPAGRGLSKAAVSEELKWWHERARLRSTRPHSLDRQGAFRVRSLPLGREGFGRALGPRAQVPTVCVLRRSPDGAPVQVFVPEKGEIISQV
Take B1: the binding entry in experiment [1] and in experiment [2] was “binds” each time.
